The results in this text go back to article PMC7819943, “Rice protein-binding microarrays: a tool to detect cis-acting elements near promoter regions in rice”.

Some of the results follow.

The assay addresses T1, OsSMF1 (Oryza sativa, UniProt Q6ZLB0 1-436).
T1 sequence: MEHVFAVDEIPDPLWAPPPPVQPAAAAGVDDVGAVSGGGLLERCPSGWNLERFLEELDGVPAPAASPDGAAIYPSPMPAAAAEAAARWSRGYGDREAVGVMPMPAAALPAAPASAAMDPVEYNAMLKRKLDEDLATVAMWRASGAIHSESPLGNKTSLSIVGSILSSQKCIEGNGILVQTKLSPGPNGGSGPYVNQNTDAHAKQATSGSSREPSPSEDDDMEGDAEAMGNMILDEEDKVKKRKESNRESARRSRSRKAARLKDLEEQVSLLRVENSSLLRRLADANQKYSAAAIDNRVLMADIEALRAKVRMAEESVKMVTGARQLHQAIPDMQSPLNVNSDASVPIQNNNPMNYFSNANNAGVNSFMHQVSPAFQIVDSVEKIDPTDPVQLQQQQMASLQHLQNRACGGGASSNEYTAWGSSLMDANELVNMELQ
Description: protein-binding microarray (RPBM); PBS, 2% BSA, 51.3 ng/ul salmon testes DNA, 50 uM zinc acetate, 200 nM TF, 25 C, 1 h; high values mean tight binding. Particulars: protein: recombinant; tags: N-terminal polyhistidine and DsRed monomer fusion (pET32a); chain copies: 2; label: CyDye5-dUTP incorporated in the synthesized complementary strand; 3' TTTTT single-stranded linker to array surface; dsDNA, one strand shown. The method, boiled down:
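Transcription factors, each fused N-terminally to a polyhistidine tag and DsRed, were expressed in E. coli BL21-CodonPlus and purified on Ni–NTA. A custom Agilent array was made double-stranded by primer extension with Cy5-dUTP and blocked with 2% BSA. It was incubated with 200 nM protein in PBS, 2% BSA, salmon testes DNA and 50 µM zinc acetate at 25 °C for 1 h, then washed. The binding signal is per-feature fluorescence intensity (arbitrary units) read on an Axon 4000B scanner.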
Regarding “GACCAGCACATCAGTTGATGACGATGTCTCTATTGTTATTCGGAGTCACCTAGTGCAG”, the binding signal is 6330 fluorescence intensity (a.u.).
As to “CCACGGAGAACCACTTGCCATCCCTCTTGATCTGCAGACCCGGAGTCACCTAGTGCAG”, the binding signal is 3450 fluorescence intensity (a.u.).
On to “CTTCGCTTGATCGATCCCATCAAAGAGTGACGGAGGTGGTCGGAGTCACCTAGTGCAG”, for which the binding signal was 12200 fluorescence intensity (a.u.).
The value for “TAACATTTTGAATCAGGCGTAACACTTGTTTGGATTGCTTCGGAGTCACCTAGTGCAG” was 35600 fluorescence intensity (a.u.); that for “TATAGTCAAAATTACTTTTCTAATGTGATAGACTGATAGTCGGAGTCACCTAGTGCAG” was 4350 fluorescence intensity (a.u.).
For the sequence “GCGCCGACTCACTCCACCACCTCATCTCATCAGCTGCCTCCGGAGTCACCTAGTGCAG”, the binding signal is 5320 fluorescence intensity (a.u.).
Turning to “GTCAAGGACGCATCACACATGGCGTGTCTCTCTGCCTTGCCGGAGTCACCTAGTGCAG”, the binding signal was 4050 fluorescence intensity (a.u.).
In the case of “CTGGCACATCGGCGAGCAGCACGACACGTTGGCGCACGTCCGGAGTCACCTAGTGCAG” it was 6440 fluorescence intensity (a.u.); in that of “TGATGATGGCCATGGCGGCCATGATCGTCATCAGCTGCTCCGGAGTCACCTAGTGCAG”, 3460 fluorescence intensity (a.u.); in that of “GGTATTCATCTAATGTCTCGAGGCCACACGTCAAGACTGACGGAGTCACCTAGTGCAG”, 3820 fluorescence intensity (a.u.).
On to “TCTAGCCAAGGGTCACGATCTCCACGAATTTCGACCATCTCGGAGTCACCTAGTGCAG”, for which the binding signal was 3260 fluorescence intensity (a.u.).
For the sequence “CGTGCCGCTGCCGTCGCGCACTGCCCGTTGACGCACGCCTCGGAGTCACCTAGTGCAG”, the binding signal was 3800 fluorescence intensity (a.u.).
For “TTCACGGCAACCTCTCGGAGCGTGGTCGCAGCAACGGCCGCGGAGTCACCTAGTGCAG”, the binding signal is 21900 fluorescence intensity (a.u.).
The value for “TTTAATCTAATGGACCTGATCTAATTATACTTCCACGTCACGGAGTCACCTAGTGCAG” was 11700 fluorescence intensity (a.u.); that for “CCACACCAGCACACACGTCTTTTAATAAAACGTGTCGTATCGGAGTCACCTAGTGCAG” was 5130 fluorescence intensity (a.u.).
Turning to “GTGAGAGAAGCCGCCTTGGATGATGTCAACCATGGTGGCGCGGAGTCACCTAGTGCAG”, the binding signal is 6930 fluorescence intensity (a.u.).
Consider “ACTTGTACTTGTGAGGGGTAGAAACGTCATATCGTGTGTGCGGAGTCACCTAGTGCAG”, for which the binding signal is 3460 fluorescence intensity (a.u.).
In the case of “AAATAGCAAGAGAACATATGCAGTCATGAGTCATAAGGGACGGAGTCACCTAGTGCAG”, the binding signal is 4840 fluorescence intensity (a.u.).
“TTGGGCGAGGTAGAGGCGGCGCCGGTGTCATCACCGTCGTCGGAGTCACCTAGTGCAG”: the binding signal is 5140 fluorescence intensity (a.u.).
As to “ACCCACCAACCCGGGTGGTTCGTGTCGTGGCATTCATGGCCGGAGTCACCTAGTGCAG”, the binding signal was 7120 fluorescence intensity (a.u.).
“AATCTTCCATCCATCCATATTCAATACACTATACACCGTACGGAGTCACCTAGTGCAG”: the binding signal was 16500 fluorescence intensity (a.u.).
With “TCCCACACTTGCGACTCCTGCCGCGACGACGACGACGACACGGAGTCACCTAGTGCAG”, the binding signal is 4140 fluorescence intensity (a.u.).
The value for “AGAATCATCTCCTGCATACATACGTCAACCGTCTCCATCCCGGAGTCACCTAGTGCAG” was 3990 fluorescence intensity (a.u.).
Take “GATGGTGGAAGAGCAGCCACGCTGGGACACGTGGACGGCCCGGAGTCACCTAGTGCAG”: the binding signal was 13400 fluorescence intensity (a.u.).
In the case of “CCCCATCAACCGCCGCTGACGCCCCTGCCTCTGAGTCCACCGGAGTCACCTAGTGCAG” it was 3740 fluorescence intensity (a.u.).
The value for “CCGTCCTAGAGTTCTTCTACCTCCCCTTCCAAAACTTCCTCGGAGTCACCTAGTGCAG” was 35800 fluorescence intensity (a.u.); that for “GAGATTATGGTTTCGTGGGCTAGCATGGACAATGAAGACTCGGAGTCACCTAGTGCAG” was 21900 fluorescence intensity (a.u.); that for “ATATATATAACACGGGTATCGGATTTGGATTTGCTTGGTACGGAGTCACCTAGTGCAG” was 37800 fluorescence intensity (a.u.).
Take “ACACTTGCAGCAAACACATTGACTATCTTTCCTCAACTGGCGGAGTCACCTAGTGCAG”: the binding signal is 7780 fluorescence intensity (a.u.).
In the case of “AGACCCGGAGACTGTGGAGACGCGACGCGAAATCGATCGACGGAGTCACCTAGTGCAG”, the binding signal was 29500 fluorescence intensity (a.u.).
On to “TCCCTACATTCCAGCGCCGTGACACATCGGAGGCCTCTGGCGGAGTCACCTAGTGCAG”, for which the binding signal was 6480 fluorescence intensity (a.u.).
Turning to “CAACTCTCGGGCCCGTCATCAATCGGGCCATGCCATGCCTCGGAGTCACCTAGTGCAG”, the binding signal was 3710 fluorescence intensity (a.u.).
Consider “TGAAATACTCCACGTAGGTTGTTACGCCACGAGTAGCGACCGGAGTCACCTAGTGCAG”, for which the binding signal was 6200 fluorescence intensity (a.u.).
With “CCCACTTGGCAGCCTGCGTTGCCGTGCGGACACGTAGCGACGGAGTCACCTAGTGCAG”, the binding signal is 5780 fluorescence intensity (a.u.).
With “TAGGAGTCTTATTTATTGATGATAAGTGTGGTGTACGTGCCGGAGTCACCTAGTGCAG”, the binding signal was 3870 fluorescence intensity (a.u.).
In the case of “TTGTTTATTTAAGGTGTGATTGTATTTGGATCATGTTTTGCGGAGTCACCTAGTGCAG”, the binding signal is 3710 fluorescence intensity (a.u.).
Take “GTGGAGTGCGGTGGACGGAGCGGCGGGGCGGGGCGGTCAGCGGAGTCACCTAGTGCAG”: the binding signal is 6720 fluorescence intensity (a.u.).
On to “CACCATCGGCGACGCCAAGACACCACATCATCACCACCAACGGAGTCACCTAGTGCAG”, for which the binding signal was 3160 fluorescence intensity (a.u.).
For “ATAAAGCATCCACATCACCATCCAGCAACTTGCATGAAACCGGAGTCACCTAGTGCAG”, the binding signal is 6670 fluorescence intensity (a.u.).
For the sequence “TCTTTAAGTGACCTATGCGTGACGTTGGGAGAATTTAGCCCGGAGTCACCTAGTGCAG”, the binding signal was 5340 fluorescence intensity (a.u.).
In the case of “AGACACAGCACACCCACTCACTCTGCTCACTCTCCCATACCGGAGTCACCTAGTGCAG” it was 39100 fluorescence intensity (a.u.); in that of “TTCAGCGGGTCACAACTCGATTTTGATTTGGCATCCTCTGCGGAGTCACCTAGTGCAG”, 3370 fluorescence intensity (a.u.).
Take “GCCGGTCCATTCTCCGCCCTTCACCGCCTCCGTTGCCGGCCGGAGTCACCTAGTGCAG”: the binding signal was 3280 fluorescence intensity (a.u.).
Take “GGAGCTTGAGCGGGTCAAGCCACACAAGGCGTCACGATCACGGAGTCACCTAGTGCAG”: the binding signal is 3300 fluorescence intensity (a.u.).
Regarding “CAAGTCCTGTTTGTTCAGTGAACGCGTGGAGGACGAAGCTCGGAGTCACCTAGTGCAG”, the binding signal is 3200 fluorescence intensity (a.u.).
“CATTTCCAAATTACATGTATGAATCCAACCAAAACTTTTCCGGAGTCACCTAGTGCAG”: the binding signal was 17200 fluorescence intensity (a.u.).
With “GTTTAATGGGTTGATGTGGCATGCTTACATATAGGTTTTACGGAGTCACCTAGTGCAG”, the binding signal was 5830 fluorescence intensity (a.u.).
As to “TACCCGCCCCGGAAGTCGTGGCACGCGAGGATGTGGCGCCCGGAGTCACCTAGTGCAG”, the binding signal was 3140 fluorescence intensity (a.u.).
Regarding “AAATCTCTCTCCACCCTTTCAGCGCGCCACGTGTCCCACACGGAGTCACCTAGTGCAG”, the binding signal was 18900 fluorescence intensity (a.u.).
On to “GGACGGTTTCGCTGATGTGGCGCCTACGTGGCATCCTAATCGGAGTCACCTAGTGCAG”, for which the binding signal was 20300 fluorescence intensity (a.u.).
As for “GAGGAGAGAGAAGAGAAGAGGTCAAGAAGAGAAGCAAGAGCGGAGTCACCTAGTGCAG”, the binding signal is 24200 fluorescence intensity (a.u.).
In the case of “TAATCATGCGGTTTTGCGGTCATAAGCATGACGAAATCTTCGGAGTCACCTAGTGCAG” it was 3700 fluorescence intensity (a.u.); in that of “AATACCTAGTCCCATCTGTCATACACACACTGTGTCTTGGCGGAGTCACCTAGTGCAG”, 3900 fluorescence intensity (a.u.).
The value for “TCGTGTCCTCTCTTCAGCCACACACGCGCCCACCTCGCCGCGGAGTCACCTAGTGCAG” was 3330 fluorescence intensity (a.u.).
